Laboratory results taken from the supplement of paper PMC10849652.
This is one part of the list.

Chains of the proteins cited; added tags and fusions are not shown. Lines headed by an entry give the natural chain unless they say otherwise; changes in a name come on top.
UniProt P52747: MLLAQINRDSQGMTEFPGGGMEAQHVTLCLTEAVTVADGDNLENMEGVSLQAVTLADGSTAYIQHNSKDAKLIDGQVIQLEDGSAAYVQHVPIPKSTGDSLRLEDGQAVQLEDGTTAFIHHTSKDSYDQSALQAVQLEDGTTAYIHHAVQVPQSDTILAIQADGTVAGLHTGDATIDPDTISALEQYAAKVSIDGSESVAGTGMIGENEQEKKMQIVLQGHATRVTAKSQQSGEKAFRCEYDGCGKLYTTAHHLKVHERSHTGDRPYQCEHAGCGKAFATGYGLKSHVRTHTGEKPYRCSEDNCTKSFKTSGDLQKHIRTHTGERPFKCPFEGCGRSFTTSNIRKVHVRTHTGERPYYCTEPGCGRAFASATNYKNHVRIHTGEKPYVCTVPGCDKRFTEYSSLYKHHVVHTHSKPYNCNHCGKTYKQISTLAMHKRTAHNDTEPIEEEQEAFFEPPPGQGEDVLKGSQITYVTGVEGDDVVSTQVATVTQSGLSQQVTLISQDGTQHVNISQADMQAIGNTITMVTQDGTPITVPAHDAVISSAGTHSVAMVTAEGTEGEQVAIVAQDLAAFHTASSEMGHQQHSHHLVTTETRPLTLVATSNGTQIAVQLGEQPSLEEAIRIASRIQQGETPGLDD
UniProt Q8IYH5: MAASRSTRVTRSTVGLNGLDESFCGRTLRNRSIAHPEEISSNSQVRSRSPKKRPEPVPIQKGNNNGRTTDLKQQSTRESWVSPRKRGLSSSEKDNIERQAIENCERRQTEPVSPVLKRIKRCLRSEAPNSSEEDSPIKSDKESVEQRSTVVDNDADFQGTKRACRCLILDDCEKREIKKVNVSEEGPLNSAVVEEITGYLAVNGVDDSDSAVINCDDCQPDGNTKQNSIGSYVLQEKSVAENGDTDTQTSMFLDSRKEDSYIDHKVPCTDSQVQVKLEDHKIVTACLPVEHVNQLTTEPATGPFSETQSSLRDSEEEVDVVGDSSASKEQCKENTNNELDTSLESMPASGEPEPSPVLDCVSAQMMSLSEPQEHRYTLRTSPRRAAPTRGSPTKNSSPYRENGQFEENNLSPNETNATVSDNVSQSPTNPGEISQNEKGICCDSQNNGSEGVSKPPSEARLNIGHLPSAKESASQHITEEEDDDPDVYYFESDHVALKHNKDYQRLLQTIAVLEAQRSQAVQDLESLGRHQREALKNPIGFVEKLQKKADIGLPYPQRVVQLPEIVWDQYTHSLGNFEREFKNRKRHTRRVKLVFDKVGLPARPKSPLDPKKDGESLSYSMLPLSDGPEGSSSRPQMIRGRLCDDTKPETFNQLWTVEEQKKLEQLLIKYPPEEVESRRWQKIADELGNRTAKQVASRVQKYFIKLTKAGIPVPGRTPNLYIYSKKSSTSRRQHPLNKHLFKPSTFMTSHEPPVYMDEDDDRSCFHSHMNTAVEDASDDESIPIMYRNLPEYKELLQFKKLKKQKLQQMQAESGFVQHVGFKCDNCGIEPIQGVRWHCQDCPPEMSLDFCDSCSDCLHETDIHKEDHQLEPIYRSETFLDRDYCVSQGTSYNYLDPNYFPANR
UniProt Q9H5H4: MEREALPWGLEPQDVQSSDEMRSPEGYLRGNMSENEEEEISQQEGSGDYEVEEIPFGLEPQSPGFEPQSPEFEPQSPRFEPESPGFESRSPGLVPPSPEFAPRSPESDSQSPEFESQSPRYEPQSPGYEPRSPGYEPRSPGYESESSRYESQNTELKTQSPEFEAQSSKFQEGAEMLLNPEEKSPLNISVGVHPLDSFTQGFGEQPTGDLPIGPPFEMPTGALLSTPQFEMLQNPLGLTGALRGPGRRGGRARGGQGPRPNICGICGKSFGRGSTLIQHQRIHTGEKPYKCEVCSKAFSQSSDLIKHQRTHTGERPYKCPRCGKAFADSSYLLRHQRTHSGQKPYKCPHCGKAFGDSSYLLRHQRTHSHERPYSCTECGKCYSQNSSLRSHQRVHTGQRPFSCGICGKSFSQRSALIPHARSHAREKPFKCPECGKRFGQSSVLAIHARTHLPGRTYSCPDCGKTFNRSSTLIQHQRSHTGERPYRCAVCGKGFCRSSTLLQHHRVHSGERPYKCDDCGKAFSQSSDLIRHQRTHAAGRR
UniProt O75312: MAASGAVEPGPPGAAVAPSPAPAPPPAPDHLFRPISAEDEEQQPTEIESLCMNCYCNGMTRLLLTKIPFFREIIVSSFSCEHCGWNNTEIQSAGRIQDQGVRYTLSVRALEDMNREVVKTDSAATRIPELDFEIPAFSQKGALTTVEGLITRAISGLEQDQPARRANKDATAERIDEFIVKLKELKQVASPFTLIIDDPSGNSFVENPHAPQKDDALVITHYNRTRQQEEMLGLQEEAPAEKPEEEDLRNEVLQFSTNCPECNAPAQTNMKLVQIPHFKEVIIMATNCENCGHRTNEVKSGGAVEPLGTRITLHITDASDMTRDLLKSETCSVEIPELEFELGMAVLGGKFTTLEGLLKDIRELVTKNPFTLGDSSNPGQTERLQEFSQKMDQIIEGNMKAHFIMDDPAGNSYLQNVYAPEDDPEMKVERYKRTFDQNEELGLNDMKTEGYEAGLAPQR
UniProt P52739: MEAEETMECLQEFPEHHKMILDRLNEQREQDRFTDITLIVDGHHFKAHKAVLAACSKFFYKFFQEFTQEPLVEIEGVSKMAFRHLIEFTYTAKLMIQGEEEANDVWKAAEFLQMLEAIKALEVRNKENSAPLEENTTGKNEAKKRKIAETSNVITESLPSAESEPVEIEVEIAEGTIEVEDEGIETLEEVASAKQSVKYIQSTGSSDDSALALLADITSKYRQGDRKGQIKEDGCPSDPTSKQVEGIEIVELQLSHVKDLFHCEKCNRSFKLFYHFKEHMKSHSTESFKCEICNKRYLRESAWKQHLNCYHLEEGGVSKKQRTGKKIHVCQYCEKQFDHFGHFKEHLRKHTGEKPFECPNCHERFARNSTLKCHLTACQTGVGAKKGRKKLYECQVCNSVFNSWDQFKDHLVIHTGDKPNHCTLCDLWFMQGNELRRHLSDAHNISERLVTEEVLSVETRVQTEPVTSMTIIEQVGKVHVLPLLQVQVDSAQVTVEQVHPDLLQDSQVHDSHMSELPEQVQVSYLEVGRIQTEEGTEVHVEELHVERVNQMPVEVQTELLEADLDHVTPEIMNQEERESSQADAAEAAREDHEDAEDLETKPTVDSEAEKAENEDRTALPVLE
UniProt Q9BRR0: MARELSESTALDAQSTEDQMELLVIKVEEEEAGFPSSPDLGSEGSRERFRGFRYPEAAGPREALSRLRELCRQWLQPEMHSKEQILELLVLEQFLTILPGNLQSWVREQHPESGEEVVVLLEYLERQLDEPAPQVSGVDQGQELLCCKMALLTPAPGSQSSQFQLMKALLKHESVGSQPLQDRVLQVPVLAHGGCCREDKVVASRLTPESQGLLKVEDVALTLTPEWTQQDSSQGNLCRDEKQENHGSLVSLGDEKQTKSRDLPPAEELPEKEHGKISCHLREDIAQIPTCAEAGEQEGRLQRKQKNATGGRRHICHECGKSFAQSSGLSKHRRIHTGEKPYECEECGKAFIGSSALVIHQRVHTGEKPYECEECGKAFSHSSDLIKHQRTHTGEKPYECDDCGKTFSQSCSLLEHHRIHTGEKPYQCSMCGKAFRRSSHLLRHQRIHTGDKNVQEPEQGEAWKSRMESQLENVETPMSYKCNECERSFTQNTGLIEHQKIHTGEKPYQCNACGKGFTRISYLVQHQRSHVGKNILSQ
UniProt O43670: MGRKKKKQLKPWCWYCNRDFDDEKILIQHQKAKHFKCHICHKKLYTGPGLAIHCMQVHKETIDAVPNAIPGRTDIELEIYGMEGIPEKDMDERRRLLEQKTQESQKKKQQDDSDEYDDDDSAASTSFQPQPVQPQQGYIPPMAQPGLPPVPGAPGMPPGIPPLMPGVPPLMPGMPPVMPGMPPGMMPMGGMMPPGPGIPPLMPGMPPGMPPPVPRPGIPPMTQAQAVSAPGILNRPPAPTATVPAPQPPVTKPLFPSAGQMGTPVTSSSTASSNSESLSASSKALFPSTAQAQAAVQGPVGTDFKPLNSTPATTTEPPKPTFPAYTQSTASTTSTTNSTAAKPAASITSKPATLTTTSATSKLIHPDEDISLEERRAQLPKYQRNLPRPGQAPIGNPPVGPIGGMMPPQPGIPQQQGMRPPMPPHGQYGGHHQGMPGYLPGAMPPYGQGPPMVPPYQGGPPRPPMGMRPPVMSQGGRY
UniProt Q9Y5V0: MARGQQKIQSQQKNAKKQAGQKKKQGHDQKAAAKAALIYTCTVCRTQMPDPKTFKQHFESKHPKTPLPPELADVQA
UniProt Q5SVZ6: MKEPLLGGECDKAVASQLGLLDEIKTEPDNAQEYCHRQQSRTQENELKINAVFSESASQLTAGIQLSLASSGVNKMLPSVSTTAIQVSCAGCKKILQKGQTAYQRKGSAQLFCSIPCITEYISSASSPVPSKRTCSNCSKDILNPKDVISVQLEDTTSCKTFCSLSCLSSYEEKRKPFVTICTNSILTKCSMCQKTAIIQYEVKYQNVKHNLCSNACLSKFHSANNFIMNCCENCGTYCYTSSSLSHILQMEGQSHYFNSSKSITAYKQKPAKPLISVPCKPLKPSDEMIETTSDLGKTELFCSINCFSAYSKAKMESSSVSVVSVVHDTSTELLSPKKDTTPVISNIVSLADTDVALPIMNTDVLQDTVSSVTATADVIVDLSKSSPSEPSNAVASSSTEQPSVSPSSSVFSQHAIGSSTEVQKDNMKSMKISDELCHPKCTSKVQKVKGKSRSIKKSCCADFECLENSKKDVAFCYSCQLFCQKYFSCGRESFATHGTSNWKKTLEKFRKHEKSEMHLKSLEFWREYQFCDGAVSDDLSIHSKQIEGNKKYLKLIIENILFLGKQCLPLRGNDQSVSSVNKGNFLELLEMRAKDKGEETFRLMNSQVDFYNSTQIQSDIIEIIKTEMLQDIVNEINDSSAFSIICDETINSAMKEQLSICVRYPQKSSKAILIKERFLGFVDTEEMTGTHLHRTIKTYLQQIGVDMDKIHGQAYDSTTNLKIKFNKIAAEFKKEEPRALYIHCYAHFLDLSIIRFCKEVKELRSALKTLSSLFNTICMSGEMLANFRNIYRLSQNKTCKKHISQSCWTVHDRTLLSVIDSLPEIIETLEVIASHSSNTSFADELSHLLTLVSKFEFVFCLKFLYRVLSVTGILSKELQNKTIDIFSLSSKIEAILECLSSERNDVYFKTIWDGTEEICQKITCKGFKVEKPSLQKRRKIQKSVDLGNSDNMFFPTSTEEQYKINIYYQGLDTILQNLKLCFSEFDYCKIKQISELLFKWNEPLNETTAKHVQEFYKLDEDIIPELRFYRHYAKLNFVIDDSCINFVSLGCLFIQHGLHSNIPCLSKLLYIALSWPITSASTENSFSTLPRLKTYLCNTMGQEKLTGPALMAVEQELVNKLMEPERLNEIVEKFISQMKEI
UniProt Q9UQR1: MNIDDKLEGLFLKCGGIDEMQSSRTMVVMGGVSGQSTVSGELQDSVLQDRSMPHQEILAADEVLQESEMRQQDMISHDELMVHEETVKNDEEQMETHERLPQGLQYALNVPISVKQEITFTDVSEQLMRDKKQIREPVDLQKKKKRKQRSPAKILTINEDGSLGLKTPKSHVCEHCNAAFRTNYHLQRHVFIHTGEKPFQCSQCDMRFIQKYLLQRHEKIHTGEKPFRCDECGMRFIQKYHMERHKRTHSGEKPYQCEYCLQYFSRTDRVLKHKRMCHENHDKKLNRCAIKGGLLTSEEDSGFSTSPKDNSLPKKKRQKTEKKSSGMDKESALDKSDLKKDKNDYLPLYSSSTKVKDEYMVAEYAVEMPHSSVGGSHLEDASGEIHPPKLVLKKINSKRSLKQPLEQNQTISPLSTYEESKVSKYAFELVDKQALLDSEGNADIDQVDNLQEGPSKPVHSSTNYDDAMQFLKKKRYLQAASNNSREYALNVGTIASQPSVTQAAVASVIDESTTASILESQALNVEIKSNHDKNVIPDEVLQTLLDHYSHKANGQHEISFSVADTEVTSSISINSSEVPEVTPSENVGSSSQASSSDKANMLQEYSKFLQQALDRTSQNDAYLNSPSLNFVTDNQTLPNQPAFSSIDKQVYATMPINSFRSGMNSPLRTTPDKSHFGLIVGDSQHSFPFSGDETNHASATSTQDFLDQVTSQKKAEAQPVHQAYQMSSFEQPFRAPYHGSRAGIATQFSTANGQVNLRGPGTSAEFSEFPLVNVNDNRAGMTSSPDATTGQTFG
UniProt Q9Y3S2: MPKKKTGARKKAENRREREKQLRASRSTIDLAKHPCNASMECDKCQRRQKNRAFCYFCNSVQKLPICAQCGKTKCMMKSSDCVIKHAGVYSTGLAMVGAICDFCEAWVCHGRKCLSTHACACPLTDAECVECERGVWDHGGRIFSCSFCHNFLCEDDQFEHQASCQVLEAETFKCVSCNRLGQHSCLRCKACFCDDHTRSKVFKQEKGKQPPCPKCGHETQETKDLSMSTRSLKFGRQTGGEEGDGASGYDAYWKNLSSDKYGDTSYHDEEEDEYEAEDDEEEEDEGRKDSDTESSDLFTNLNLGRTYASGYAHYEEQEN

Columns and labels:
Experiment in all cases: log2 fold change, soluble protein after heating vs DMSO (PISA); higher = thermal stabilisation; K562 lysate, 10 uM; active = over 0.2 and 3.5 SD of the protein, either way, in both replicates (recomputed)
[1] = compound: C#Cc1cccc(Nc2ncnc3cc(OCCOC)c(OCCOC)cc23)c1 [erlotinib]
Summary of the method: (§1)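 Soluble protein was defined as the supernatant remaining after 21,000xg for 90 min, following pooling of heated aliquots and adjustment to 0.5% NP-40 at 4°C. Before that, crude K562 extract at 1 mg/mL protein in PBS pH 7.4 with 1 mM MgCl2 was treated with 10 μM compound for 30 min and heated for 3 min across 48°C-58°C. Quantification used TMTpro 16plex LC-MS/MS with channel sums equalised, and values are log-two fold changes in thermal stability relative to solvent controls from duplicates.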

[2] = compound: C/C(=N\NC(=O)C1=CC(=CC=C1)S(=O)(=O)N2CCOCC2)/C3=C(C=CC(=C3)Cl)O
Summary of the method: as §1

[3] = compound: C1=CC(=CC=C1C2=NC3=C(N2)C=C(C=C3)C(=O)N)OC4=CC=C(C=C4)Cl
Summary of the method: as §1

[4] = compound: C1=CC2=C(C=CC(=C2)/C=C\3/C(=O)NC(=NCC4=CC=CS4)S3)N=C1
Summary of the method: as §1

[5] = compound: C1=CC2=NC=CN=C2C=C1/C=C/3\C(=O)NC(=O)S3
Summary of the method: as §1

[6] = compound: C1=CC=C(C=C1)C2=NC(=C(N2)C3=CC=NC=C3)C4=CC(=C(C=C4)Cl)O
Summary of the method: as §1

[7] = compound: C1=CC=C2C(=C1)C3=NNC4=CC=CC(=C43)C2=O
Summary of the method: as §1

[8] = compound: C1CCN(C1)C(=O)NC2=CC=CC(=C2)NC3=NC=C(C(=N3)NCCC4=CN=CN4)Br
Summary of the method: as §1

[9] = compound: C1CN(CCC1(CC2=CC=C(C=C2)Cl)N)C3=NC=NC4=C3C=CN4
Summary of the method: as §1

[10] = compound: C1COCCN1CCN2C3=CC=CC=C3N=C2NC(=O)C4=CC(=CC=C4)[N+](=O)[O-] [IRAK-1-4 Inhibitor I]
Summary of the method: as §1

Measured: log2 fold change

ZNHIT6 (UniProt Q9NWK9)
inactive: [1] 0.059 | [2] 0.475 | [3] 0.062 | [4] 0.024 | [5] -0.007 | [6] -0.008 | [7] -0.068 | [8] 0 | [9] 0.014 | [10] 0.003

ZNF143 (UniProt P52747)
inactive: [1] -0.029 | [2] -0.037 | [3] 0.01 | [4] 0.039 | [5] -0.005 | [6] 0.018 | [7] -0.034 | [8] 0.007 | [9] -0.002 | [10] -0.002

ZZZ3 (UniProt Q8IYH5)
inactive: [1] 0.111 | [2] 0.024 | [3] -0.083 | [4] 0.019 | [5] 0.015 | [6] 0.085 | [7] 0.04 | [8] 0.019 | [9] -0.019 | [10] -0.022

Reprinted at random: 2 records from the list, in no set order.
ZNHIT6 (UniProt Q9NWK9)
inactive: [1] 0.059 | [2] 0.475 | [3] 0.062 | [4] 0.024 | [5] -0.007 | [6] -0.008 | [7] -0.068 | [8] 0 | [9] 0.014 | [10] 0.003

ZNF143 (UniProt P52747)
inactive: [1] -0.029 | [2] -0.037 | [3] 0.01 | [4] 0.039 | [5] -0.005 | [6] 0.018 | [7] -0.034 | [8] 0.007 | [9] -0.002 | [10] -0.002

Further records.

ZNF768 (UniProt Q9H5H4)
inactive: [1] -0.12 | [2] -0.062 | [3] -0.013 | [4] -0.006 | [5] -0.009 | [6] 0.062 | [7] -0.039 | [8] -0.047 | [9] 0.032 | [10] -0.027

ZPR1 (UniProt O75312)
inactive: [1] -0.031 | [2] 0 | [3] -0.007 | [4] -0.004 | [5] -0.01 | [6] 0.02 | [7] 0.006 | [8] 0.018 | [9] 0.014 | [10] 0.008

ZNRD2 (UniProt G3V1B8)
inactive: [1] -0.005 | [2] -0.02 | [3] 0.029 | [4] 0.093 | [5] 0.082 | [6] 0.005 | [7] -0.074 | [8] 0.035 | [9] -0.195 | [10] -0.072

ZMPSTE24 (UniProt O75844)
inactive: [1] -0.006 | [2] 0.022 | [3] 0.007 | [4] 0.01 | [5] -0.012 | [6] -0.005 | [7] -0.029 | [8] 0.006 | [9] -0.003 | [10] 0.038

ZNF131 (UniProt P52739)
inactive: [1] 0.011 | [2] 0.022 | [3] -0.007 | [4] -0.035 | [5] 0.067 | [6] 0.005 | [7] -0.039 | [8] 0.005 | [9] 0.001 | [10] 0.01

ZKSCAN3 (UniProt Q9BRR0)
inactive: [1] 0.026 | [2] -0.091 | [3] 0.14 | [4] -0.198 | [5] 0.033 | [6] -0.034 | [7] 0.07 | [8] -0.044 | [9] -0.019 | [10] -0.335

ZNF207 isoform 4 (UniProt O43670)
inactive: [1] 0.002 | [2] -0.014 | [3] 0.059 | [4] -0.009 | [5] 0.007 | [6] -0.051 | [7] 0 | [8] 0 | [9] 0.003 | [10] 0.003

ZNF706 (UniProt Q9Y5V0)
inactive: [1] 0 | [2] -0.042 | [3] 0.026 | [4] 0.003 | [5] -0.045 | [6] -0.041 | [7] -0.013 | [8] 0.006 | [9] -0.043 | [10] 0.004

ZWINT (UniProt O95229)
inactive: [1] 0.01 | [2] 0.04 | [3] -0.021 | [4] 0.002 | [5] 0.012 | [6] -0.002 | [7] 0.032 | [8] -0.003 | [9] 0.01 | [10] 0.005

ZMYM1 (UniProt Q5SVZ6)
inactive: [1] -0.041 | [2] -0.027 | [3] -0.002 | [4] 0.021 | [5] 0.007 | [6] -0.036 | [7] 0.041 | [8] 0.043 | [9] 0.025 | [10] -0.008

ZNF148 (UniProt Q9UQR1)
inactive: [1] 0.022 | [2] -0.041 | [3] -0.074 | [4] -0.031 | [5] -0.068 | [6] -0.058 | [7] 0.13 | [8] -0.022 | [9] 0.035 | [10] -0.007

ZNF330 (UniProt Q9Y3S2)
inactive: [1] 0.022 | [2] -0.019 | [3] 0.026 | [4] 0.013 | [5] 0.022 | [6] 0.021 | [7] 0.002 | [8] -0.06 | [9] 0 | [10] -0.012
